Source: patent publication US20260103529A1, “Amino Acid Sequences Directed Against the Melanocortin 4 Receptor and Polypeptides Comprising the Same for the Treatment of MC4R-Related Diseases and Disorders” (Confo Therapeutics N.V., priority 2022, published 2026)
At least one structure is not confirmed: it was looked up by name or label, or the drawing left a doubt.

Key:
DIO mice [1] = assay: Diet-induced obese (DIO) mouse study, 14-day subcutaneous administration; type: in vivo; settings: setmelanotide 5 mg/kg SC QD 14 days
DIO mice [2] = assay: Diet-induced obese (DIO) mouse study, acute setting, ICV administration; type: in vivo
Experimental: The mouse studies described in Examples 2 and 3 were performed at a fully AAALAC accredited unit (Gubra, Denmark), and all animal experiments were conducted in accordance with the CRO's bioethical guidelines, which are fully compliant to internationally accepted principles for the care and use of laboratory animals. All experiments were licensed by the Danish Animal Experimentation Council. This animal model is based on male C57BI/6J mice that are fed for a minimum of 18 weeks a 60% high fat diet that result in rapid weight gain. The mice were obtained from commercial vendors in Europe and United States transferred to Gubra's animal unit. The animal room environment is controlled (targeted ranges: temperature 21±2° C.; relative humidity 50±10%). The animals are maintained on a reversed 12 h light/dark cycle and have access to plenty of bedding material, shelters and chewing sticks. Animals were dosed just before lights went off.
Male DIO mice (5 weeks of age at time of arrival and HF diet induction, 46 weeks of age at study start, n=50) had ad libitum access to 60% high fat diet (D12492, Research diets) and water. The DIO mice were acclimatized to an automated real-time food intake monitoring system (MoNI system) individually housed in the system for 14 days prior to study start. […]

CC(=O)N[C@@H](CCCNC(=N)N)C(=O)N[C@H]1CSSC[C@@H](C(N)=O)NC(=O)[C@H](Cc2c[nH]c3ccccc23)NC(=O)[C@H](CCCNC(=N)N)NC(=O)[C@@H](Cc2ccccc2)NC(=O)[C@H](Cc2c[nH]cn2)NC(=O)[C@@H](C)NC1=O [setmelanotide, reference compound]
absolute body weight at the end of the treatment period (DIO mice [1]): significantly reduced
cumulative food intake after the first dose (DIO mice [2]; setmelanotide 0.5 and 5 nmol ICV): significant and dose-dependent lowering
food intake as compared to vehicle at the second dose (DIO mice [2]; setmelanotide dose lowered to 0.05 nmol ICV (day 2)): no effect on food intake
